{"source": "PubChem BioAssay AID504793 (Drosophila RNAi Screening Center, 2011)", "assay": "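Knock-downs allowing continued mitosis even though DNA is damaged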 (primary screen)", "cell system": "Drosophila S2R+ cells", "knock-down reagent": "long dsRNA against Drosophila genes, about 0.25 µg dsRNA per well", "duration": "4 days of dsRNA, then 4 hours of drug before read-out", "challenge": "doxorubicin 0.5 µM for 4 hours to cause double-strand breaks, in cells also given a low, harmless dose of dsRNA against nbs to sensitise the assay", "detection": "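Per-well count of mitotic cells stained for phospho-histone H3 after doxorubicin exposure, used as mitotic index; counts are raw and not normalised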", "direction": "mitotic cells: higher = more cells in mitosis, weaker G2 arrest", "rule for the call": "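Genes are called active only when high mitotic counts were reproduced with independent dsRNAs and mitosis was checked for delay without damage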", "calls": "active = confirmed in follow-up tests; inactive = not confirmed", "note": "In all, the deposit lists about 23,000 reagents; this is an unselected part of those that have a named target and a result. Over the whole deposit, 62 (0.27%) were called active. 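Calls come from follow-up tests whose scores are not deposited, so confirmed genes may have low counts here; counts are not normalised per plate.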 Raw values vary from plate to plate and are shown uncorrected. Reagent sequences are not shown."}
{"gene knocked down": "Oat (Ornithine aminotransferase precursor)", "amplicon": "DRSC11043", "mitotic cells, replicate 1": 5, "activity call": "inactive"}
{"gene knocked down": "Octbeta1R (Octopamine beta1 receptor)", "amplicon": "DRSC16134", "mitotic cells, replicate 1": 15, "activity call": "inactive"}
{"gene knocked down": "Octbeta1R (Octopamine beta1 receptor)", "amplicon": "DRSC30030", "mitotic cells, replicate 1": 12, "activity call": "inactive"}
{"gene knocked down": "CG10352", "amplicon": "DRSC19353", "mitotic cells, replicate 1": 8, "activity call": "inactive"}
{"gene knocked down": "CG3032", "amplicon": "DRSC18266", "mitotic cells, replicate 1": 14, "activity call": "inactive"}
{"gene knocked down": "CG3032", "amplicon": "DRSC24426", "mitotic cells, replicate 1": 11, "activity call": "inactive"}
{"gene knocked down": "Asciz (ASCIZ zinc finger protein)", "amplicon": "DRSC08421", "activity call": "inactive"}
{"gene knocked down": "bol (boule)", "amplicon": "DRSC08964", "mitotic cells, replicate 1": 5, "activity call": "inactive"}
{"gene knocked down": "bol (boule)", "amplicon": "DRSC10444", "mitotic cells, replicate 1": 8, "activity call": "inactive"}
{"gene knocked down": "bol (boule)", "amplicon": "DRSC11329", "mitotic cells, replicate 1": 4, "activity call": "inactive"}
{"gene knocked down": "bol (boule)", "amplicon": "DRSC26869", "mitotic cells, replicate 1": 7, "activity call": "inactive"}
{"gene knocked down": "IFT43 (Intraflagellar transport 43)", "amplicon": "DRSC02892", "mitotic cells, replicate 1": 5, "activity call": "inactive"}
{"gene knocked down": "Dlc90F (Dynein light chain 90F)", "amplicon": "DRSC16649", "mitotic cells, replicate 1": 7, "activity call": "inactive"}
{"gene knocked down": "CG32795", "amplicon": "DRSC18609", "mitotic cells, replicate 1": 13, "activity call": "inactive"}
{"gene knocked down": "CG32795", "amplicon": "DRSC18610", "mitotic cells, replicate 1": 6, "activity call": "inactive"}
{"gene knocked down": "Atox1 (Antioxidant 1 copper chaperone)", "amplicon": "DRSC22416", "mitotic cells, replicate 1": 13, "activity call": "inactive"}
{"gene knocked down": "CG31121", "amplicon": "DRSC15361", "activity call": "inactive"}
{"gene knocked down": "CG31121", "amplicon": "DRSC15363", "mitotic cells, replicate 1": 8, "activity call": "inactive"}
{"gene knocked down": "CG34337", "amplicon": "DRSC18435", "mitotic cells, replicate 1": 13, "activity call": "inactive"}
{"gene knocked down": "temp (tempura)", "amplicon": "DRSC18271", "mitotic cells, replicate 1": 7, "activity call": "inactive"}
{"gene knocked down": "Obp83g (Odorant-binding protein 83g)", "amplicon": "DRSC12269", "mitotic cells, replicate 1": 4, "activity call": "inactive"}
{"gene knocked down": "Obp83g (Odorant-binding protein 83g)", "amplicon": "DRSC28322", "mitotic cells, replicate 1": 2, "activity call": "inactive"}
{"gene knocked down": "CCHa2 (CCHamide-2)", "amplicon": "DRSC14835", "mitotic cells, replicate 1": 10, "mitotic cells, replicate 2": 11, "activity call": "inactive"}
{"gene knocked down": "lawc (retired record)", "amplicon": "DRSC23208", "mitotic cells, replicate 1": 16, "activity call": "inactive"}
{"gene knocked down": "Usp20-33 (Ubiquitin specific protease 20/33)", "amplicon": "DRSC07196", "mitotic cells, replicate 1": 2, "activity call": "inactive"}
{"gene knocked down": "CG2246", "amplicon": "DRSC15433", "mitotic cells, replicate 1": 9, "activity call": "inactive"}
{"gene knocked down": "Sclp", "amplicon": "DRSC19851", "mitotic cells, replicate 1": 2, "activity call": "inactive"}
{"gene knocked down": "Gr57a (Gustatory receptor 57a)", "amplicon": "DRSC06401", "mitotic cells, replicate 1": 4, "activity call": "inactive"}
{"gene knocked down": "CG10597", "amplicon": "DRSC19357", "mitotic cells, replicate 1": 6, "mitotic cells, replicate 2": 10, "activity call": "inactive"}
{"gene knocked down": "CG10597", "amplicon": "DRSC25101", "mitotic cells, replicate 1": 5, "activity call": "inactive"}
{"gene knocked down": "g (garnet)", "amplicon": "DRSC20335", "mitotic cells, replicate 1": 10, "activity call": "inactive"}
{"gene knocked down": "g (garnet)", "amplicon": "DRSC26118", "mitotic cells, replicate 1": 7, "activity call": "inactive"}
{"gene knocked down": "CG31533", "amplicon": "DRSC13018", "mitotic cells, replicate 1": 5, "activity call": "inactive"}
{"gene knocked down": "CG30398", "amplicon": "DRSC03891", "mitotic cells, replicate 1": 9, "activity call": "inactive"}
